## Cleaved PARP in drug-treated melanoma cells

Values as published with doi:10.1371/journal.pone.0140310, rounded.

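The test systems are human melanoma cell lines, treated with two drugs together for 72 h and then stained and imaged. The read-out is the fraction of cleaved-PARP-positive nuclei, in % of that fraction in the DMSO control; 200 means twice the control level of this apoptosis marker. Concentrations were fixed for each drug; these are the higher of two levels. These are primary screening values without error estimates. The marker varies much from line to line, for technical or biological reasons.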 Only some of the drugs and lines screened are listed, without regard to their results. An entry leaves out what has no value listed here.

Every entry is a combination with L-779450 at 1 µM: Oc1cc(-c2nc(-c3ccccc3)[nH]c2-c2ccncc2)ccc1Cl

{"partner": "NC(=O)Nc1cc(-c2cccc(F)c2)sc1C(=O)N[C@H]1CCCNC1 at 0.1 µM", "COLO 800": 93.6, "MeWo": 15.8, "MZ2-MEL": 58.9, "UACC-62": 232, "RPMI-7951": 186}
{"partner": "O=C(/C=C/c1cccnc1)NCCCCC1CCN(C(=O)c2ccccc2)CC1 at 0.05 µM", "COLO 800": 480, "MeWo": 108, "MZ2-MEL": 1290, "UACC-62": 388, "RPMI-7951": 190}
{"partner": "CC[C@]1(O)C[C@H]2CN(CCc3c([nH]c4ccccc34)[C@@](C(=O)OC)(c3cc4c(cc3OC)N(C=O)[C@H]3[C@@](O)(C(=O)OC)[C@H](OC(C)=O)[C@]5(CC)C=CCN6CC[C@]43[C@@H]65)C2)C1 at 0.0005 µM", "COLO 800": 76.0, "MeWo": 144, "MZ2-MEL": 481, "UACC-62": 474, "RPMI-7951": 297}
{"partner": "COc1cc2ncnc(Nc3ccc(Oc4ccccc4)cc3)c2cc1OC at 10 µM", "COLO 800": 59.2, "MeWo": 67.2, "MZ2-MEL": 47.3, "UACC-62": 190, "RPMI-7951": 130}
{"partner": "COC(=O)c1sccc1S(=O)(=O)Nc1ccc(Nc2ccccc2)cc1OC at 5 µM", "COLO 800": 59.3, "MeWo": 50.1, "UACC-62": 133, "RPMI-7951": 73.2}
{"partner": "CN(c1ncccc1CNc1nc(Nc2ccc3c(c2)CC(=O)N3)ncc1C(F)(F)F)S(C)(=O)=O at 0.4 µM", "COLO 800": 23.8, "MeWo": 141, "MZ2-MEL": 308, "UACC-62": 522, "RPMI-7951": 55.7}
{"partner": "O=S(=O)(c1ccccc1)N(CC(F)(F)F)c1ccc(C(O)(C(F)(F)F)C(F)(F)F)cc1 at 7 µM", "COLO 800": 49.2, "MeWo": 99.0, "MZ2-MEL": 89.3, "UACC-62": 473, "RPMI-7951": 178}
{"partner": "CN(NC(=O)CC(=O)NN(C)C(=S)c1ccccc1)C(=S)c1ccccc1 at 0.03 µM", "COLO 800": 281, "MeWo": 161, "MZ2-MEL": 41.6, "UACC-62": 810, "RPMI-7951": 70.2}
{"partner": "C[C@]1(O)C[C@@H](c2nc(-c3ccc4ccc(-c5ccccc5)nc4c3)c3c(N)nccn32)C1 at 2 µM", "COLO 800": 123, "MeWo": 27.9, "MZ2-MEL": 24.1, "UACC-62": 367, "RPMI-7951": 168}
{"partner": "C[C@@H](N)c1ccc(C(=O)Nc2ccnc3[nH]ccc23)cc1 at 2 µM", "COLO 800": 87.7, "MeWo": 298, "MZ2-MEL": 219, "UACC-62": 433, "RPMI-7951": 112}
{"partner": "C=CCNC1=C2C[C@@H](C)C[C@H](OC)[C@H](O)[C@@H](C)/C=C(\\C)[C@H](OC(N)=O)[C@@H](OC)/C=C\\C=C(/C)C(=O)NC(=CC1=O)C2=O at 0.01 µM", "COLO 800": 43.0, "MeWo": 158, "MZ2-MEL": 99.5, "UACC-62": 340, "RPMI-7951": 592}
{"partner": "Nc1nc(F)nc2c1ncn2[C@@H]1O[C@H](CO)[C@@H](O)[C@@H]1O at 1 µM", "COLO 800": 80.7, "MeWo": 60.3, "MZ2-MEL": 124, "UACC-62": 289, "RPMI-7951": 228}
{"partner": "CC(=O)O[C@@]12CO[C@@H]1C[C@H](O)[C@@]1(C)C(=O)[C@H](O)C3=C(C)[C@@H](OC(=O)[C@H](O)[C@@H](NC(=O)OC(C)(C)C)c4ccccc4)C[C@@](O)([C@@H](OC(=O)c4ccccc4)[C@H]21)C3(C)C at 0.0005 µM", "COLO 800": 635, "MeWo": 752, "MZ2-MEL": 278, "UACC-62": 916, "RPMI-7951": 587}
{"partner": "Oc1nc(-c2ccc(C(F)(F)F)cc2)nc2c1CSCC2 at 10 µM", "COLO 800": 49.7, "MeWo": 69.4, "MZ2-MEL": 44.2, "UACC-62": 396, "RPMI-7951": 66.5}
{"partner": "Cn1c(=O)n(-c2ccc(C(C)(C)C#N)cc2)c2c3cc(-c4cnc5ccccc5c4)ccc3ncc21 at 0.02 µM", "COLO 800": 107, "MeWo": 27.9, "MZ2-MEL": 59.5, "UACC-62": 460, "RPMI-7951": 268}
{"partner": "Nc1cccc2c1CN(C1CCC(=O)NC1=O)C2=O (stereo not given) at 5 µM", "COLO 800": 48.9, "MeWo": 66.6, "MZ2-MEL": 43.1, "UACC-62": 152, "RPMI-7951": 98.7}
{"partner": "C[C@@H]1CCN(C(=O)CC#N)C[C@@H]1N(C)c1ncnc2[nH]ccc12 at 5 µM", "COLO 800": 75.2, "MeWo": 73.3, "MZ2-MEL": 61.9, "UACC-62": 324, "RPMI-7951": 76.6}
{"partner": "Cn1cncc1[C@@](N)(c1ccc(Cl)cc1)c1ccc2c(c1)c(-c1cccc(Cl)c1)cc(=O)n2C at 0.05 µM", "COLO 800": 52.1, "MeWo": 46.6, "MZ2-MEL": 157, "UACC-62": 140, "RPMI-7951": 34.7}
{"partner": "Cn1cnc2c(F)c(Nc3ccc(Br)cc3Cl)c(C(=O)NOCCO)cc21 at 0.075 µM", "COLO 800": 228, "MeWo": 38.0, "MZ2-MEL": 319, "UACC-62": 519, "RPMI-7951": 136}
{"partner": "O=C(Nc1cc(C(F)(F)F)cc(C(F)(F)F)c1)c1cc(Cl)ccc1O at 0.08 µM", "COLO 800": 129, "MeWo": 51.4, "MZ2-MEL": 124, "UACC-62": 381, "RPMI-7951": 86.4}
{"partner": "O=C(Oc1ccc([N+](=O)[O-])cc1)N1CCC(C(O)(c2ccc3c(c2)OCO3)c2ccc3c(c2)OCO3)CC1 at 5 µM", "COLO 800": 69.4, "MeWo": 81.0, "MZ2-MEL": 51.9, "UACC-62": 390, "RPMI-7951": 76.0}
{"partner": "Cn1cc(/C=C2\\C(=O)Nc3cccnc32)c2ccccc21 at 2 µM", "COLO 800": 139, "MeWo": 82.5, "MZ2-MEL": 74.0, "UACC-62": 731, "RPMI-7951": 39.8}
{"partner": "Cc1cc(N2CCOCC2)cc2[nH]c(-c3c(NC[C@@H](O)c4cccc(Cl)c4)cc[nH]c3=O)nc12 at 1 µM", "COLO 800": 99.2, "MeWo": 75.6, "UACC-62": 94.2, "RPMI-7951": 162}

For reference, 3 entries once more:

- CC[C@]1(O)C[C@H]2CN(CCc3c([nH]c4ccccc34)[C@@](C(=O)OC)(c3cc4c(cc3OC)N(C=O)[C@H]3[C@@](O)(C(=O)OC)[C@H](OC(C)=O)[C@]5(CC)C=CCN6CC[C@]43[C@@H]65)C2)C1 at 0.0005 µM : COLO 800: 76.0; MeWo: 144; MZ2-MEL: 481; UACC-62: 474; RPMI-7951: 297
- Cc1cc(N2CCOCC2)cc2[nH]c(-c3c(NC[C@@H](O)c4cccc(Cl)c4)cc[nH]c3=O)nc12 at 1 µM : COLO 800: 99.2; MeWo: 75.6; UACC-62: 94.2; RPMI-7951: 162
- C=CCNC1=C2C[C@@H](C)C[C@H](OC)[C@H](O)[C@@H](C)/C=C(\C)[C@H](OC(N)=O)[C@@H](OC)/C=C\C=C(/C)C(=O)NC(=CC1=O)C2=O at 0.01 µM : COLO 800: 43.0; MeWo: 158; MZ2-MEL: 99.5; UACC-62: 340; RPMI-7951: 592